The target in one experiment is T1, Steroid 17-alpha-hydroxylase/17,20 lyase (Rattus norvegicus, UniProt P11715).
T1 sequence (P11715 whole entry): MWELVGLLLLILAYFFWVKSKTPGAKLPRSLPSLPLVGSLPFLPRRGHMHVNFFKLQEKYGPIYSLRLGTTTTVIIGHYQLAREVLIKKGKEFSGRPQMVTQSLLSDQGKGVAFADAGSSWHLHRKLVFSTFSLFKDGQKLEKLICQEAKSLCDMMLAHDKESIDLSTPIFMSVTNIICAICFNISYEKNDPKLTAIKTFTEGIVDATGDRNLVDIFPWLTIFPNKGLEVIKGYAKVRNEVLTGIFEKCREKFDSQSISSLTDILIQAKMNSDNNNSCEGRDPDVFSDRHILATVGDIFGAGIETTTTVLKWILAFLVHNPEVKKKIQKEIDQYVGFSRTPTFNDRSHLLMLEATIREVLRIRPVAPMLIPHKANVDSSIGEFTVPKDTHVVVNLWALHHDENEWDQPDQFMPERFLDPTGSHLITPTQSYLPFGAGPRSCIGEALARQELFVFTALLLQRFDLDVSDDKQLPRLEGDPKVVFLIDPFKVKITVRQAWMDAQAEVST
As to `O=C1/C(=C/c2c[nH]cn2)CCc2ccccc21`, the IC50 (usually the concentration that inhibits the measured activity by half) came out at 31 µM.

In turn, `O=C1/C(=C\c2c[nH]cn2)CCc2ccccc21` yielded an IC50 of 74 µM.

Take `c1ccc2c(c1)CCC1C(c3c[nH]cn3)C21` (stereo not given): the IC50 turned out to be 90 µM.

The target in a further experiment is T2, Aromatase (Homo sapiens, UniProt P11511).
T2 sequence (P11511 whole entry): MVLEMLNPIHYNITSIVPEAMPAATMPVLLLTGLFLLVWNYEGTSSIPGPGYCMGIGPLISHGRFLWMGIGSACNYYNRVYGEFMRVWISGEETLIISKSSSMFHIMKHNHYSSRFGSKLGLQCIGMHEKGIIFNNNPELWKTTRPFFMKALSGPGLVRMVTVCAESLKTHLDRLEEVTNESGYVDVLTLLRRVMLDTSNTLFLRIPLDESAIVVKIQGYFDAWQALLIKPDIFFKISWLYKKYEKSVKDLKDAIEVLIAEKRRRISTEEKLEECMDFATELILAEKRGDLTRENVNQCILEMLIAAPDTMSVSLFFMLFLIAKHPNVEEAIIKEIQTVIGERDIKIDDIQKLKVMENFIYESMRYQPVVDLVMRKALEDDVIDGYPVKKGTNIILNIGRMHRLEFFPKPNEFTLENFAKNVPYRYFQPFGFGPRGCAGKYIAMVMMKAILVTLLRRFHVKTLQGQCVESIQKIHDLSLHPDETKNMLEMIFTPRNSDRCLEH
`O=C1/C(=C/c2cccnn2)CCc2ccccc21` gave an IC50 of over 250 µM.

The compound `c1ccc(C2C3CCc4ccccc4C32)nc1` (stereo not given) showed an IC50 of over 250 µM.

For `O=C1/C(=C/c2ccsc2)CCc2ccccc21`, the concentration for half-maximal inhibition (IC50) was over 250 µM.

For `c1ccc(C2C3CCc4ccccc4C32)cc1` (stereo not given), the IC50 is over 250 µM.

`O=C1/C(=C/c2ccccc2)CCc2ccccc21` showed an IC50 of over 250 µM.

Consider `Nc1ncc(/C=C2\CCc3ccccc3C2=O)s1`, for which the concentration for half-maximal inhibition (IC50) is over 250 µM.

The compound `O=C1/C(=C/c2ccccn2)CCc2ccccc21` came in with an IC50 of over 250 µM.

The compound `O=C1/C(=C/c2ccnnc2)CCc2ccccc21` registered an IC50 of 103 µM.

`c1ccc2c(c1)CCC1C(c3ccsc3)C21` (stereo not given) gave an IC50 of over 250 µM.

In a further experiment the target is T2, Aromatase. The source holds these as a separate data set.
In the case of `O=C1c2ccccc2CCC1C(O)c1ccnnc1` (stereo not given), the IC50 was over 250 µM.

As for `O=C1c2ccccc2CCC1C(O)c1cnccn1` (stereo not given), the IC50 was over 250 µM.

On to `O=C1c2ccccc2CCC1C(O)c1cccnn1` (stereo not given), for which the IC50 was over 250 µM.
